Data source: PubChem BioAssay AID504774 (Drosophila RNAi Screening Center, 2011)
Screen: 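Genes required for cells to withstand methyl methanesulphonate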 (primary screen). Cells: Drosophila Kc167 cells. Reagents: long dsRNA against Drosophila genes, about 0.25 µg dsRNA per well. Timing: about 6 days: 3 days knock-down, then 3 days with or without MMS. Challenge: methyl methanesulphonate 0.004% (w/v) for 3 days after knock-down. Detection: 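Viability in wells given MMS, read as ATP luminescence, normalised by quantiles plate by plate and averaged across replicates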. Scale: mean viability with MMS and viability with MMS: higher = more surviving cells after MMS.
The screen tested about 23,000 reagents; below is a random part of those that have a named target and a result. 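Values are quantile-normalised luminescence on an arbitrary scale; higher means more cells surviving MMS.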 Names joined by + are all predicted targets of the reagent. Further read-outs or replicates are left out here.

| gene | dsRNA | mean viability with MMS | viability with MMS, replicate 1 |
| --- | --- | --- | --- |
| Idh3g | DRSC15699 | 3.66e6 | 4.11e6 |
| CG13743 | DRSC05139 | 3.58e6 | 3.92e6 |
| CG13743 | DRSC06414 | 3.42e6 | 3.94e6 |
| CG13743 | DRSC22775 | 3.50e6 | 3.99e6 |
| CG32855 | DRSC13131 | 3.45e6 | 3.95e6 |
| bond | DRSC16135 | 3.47e6 | 3.96e6 |
| CG5800 | DRSC19962 | 3.44e6 | 3.89e6 |
| CG30485 | DRSC06376 | 3.60e6 | 3.98e6 |
| CG34278 | DRSC13208 | 3.42e6 | 3.80e6 |
| IntS6 | DRSC18281 | 3.38e6 | 3.34e6 |
| CG13404 | DRSC19536 | 3.56e6 | 3.97e6 |
| CG6310 | DRSC10619 | 3.75e6 | 4.10e6 |
| CG17032 | DRSC10241 | 3.65e6 | 4.05e6 |
| CG11168 | DRSC14292 | 3.58e6 | 4.13e6 |
| Bem46 | DRSC00275 | 3.50e6 | 4.04e6 |
| Gyc76C + CG42637 | DRSC11180 | 3.65e6 | 4.16e6 |
| CG14877 | DRSC15001 | 3.62e6 | 4.10e6 |
| Tsp42Eh | DRSC06190 | 3.61e6 | 4.13e6 |
| RpS3 | DRSC16838 | 2.88e6 | 3.56e6 |
| Mics1 | DRSC12537 | 3.81e6 | 4.30e6 |
| Oamb | DRSC13433 | 3.39e6 | 3.86e6 |
| Oamb | DRSC15120 | 3.45e6 | 3.83e6 |
| Oamb | DRSC16763 | 3.57e6 | 3.90e6 |
| CG15020 | DRSC08474 | 3.55e6 | 4.01e6 |
| CG33230 | DRSC08602 | 3.46e6 | 3.92e6 |
| bocks | DRSC16489 | 3.55e6 | 4.12e6 |
| ems | DRSC16941 | 3.59e6 | 4.01e6 |
| Phk-3 | DRSC04547 | 3.64e6 | 4.19e6 |
| l(2)k10201 | DRSC06439 | 3.62e6 | 4.08e6 |
| l(2)k10201 | DRSC07640 | 3.54e6 | 4.05e6 |
| CG33969 | DRSC11777 | 3.59e6 | 4.10e6 |
| Tsp42A | DRSC04862 | 3.49e6 | 3.91e6 |
| Ir56a | DRSC05776 | 3.57e6 | 4.02e6 |
| CG12128 + CG1407 | DRSC06446 | 3.76e6 | 4.20e6 |
| Kdm5 | DRSC03133 | 3.40e6 | 3.76e6 |
| p-cup | DRSC19513 | 3.48e6 | 3.93e6 |
| DnaJ-H | DRSC03273 | 3.66e6 | 4.16e6 |
| CG13674 | DRSC10033 | 3.36e6 | 3.69e6 |
| S-Lap7 | DRSC06374 | 3.55e6 | 3.96e6 |
| Cox10 | DRSC02804 | 3.43e6 | 3.86e6 |
| CG3198 | DRSC18292 | 3.46e6 | 4.01e6 |
| CG5608 | DRSC15841 | 3.61e6 | 4.04e6 |
| CG4820 | DRSC15654 | 3.72e6 | 4.21e6 |
| mtrm | DRSC10322 | 3.26e6 | 3.64e6 |
| mtrm | DRSC23076 | 3.48e6 | 4.02e6 |
| CG4972 | DRSC02798 | 3.66e6 | 3.99e6 |

Single entries from above.
Under “viability with MMS, replicate 1”, Tsp42Eh [DRSC06190] is entered as 4.13e6
Ir56a [DRSC05776], viability with MMS, replicate 1 = 4.02e6
Entry of CG6310 [DRSC10619] under “mean viability with MMS”: 3.75e6
For “viability with MMS, replicate 1”, Kdm5 [DRSC03133] reads 3.76e6
CG13674 [DRSC10033], mean viability with MMS = 3.36e6
CG4972 [DRSC02798], viability with MMS, replicate 1: 3.99e6

The results go on:
| gene | dsRNA | mean viability with MMS | viability with MMS, replicate 1 |
| --- | --- | --- | --- |
| CG33543 | DRSC00384 | 3.54e6 | 3.98e6 |
| CG33543 | DRSC00385 | 3.50e6 | 3.99e6 |
| Hsp60A | DRSC20254 | 3.77e6 | 4.11e6 |
| CG12902 | DRSC06217 | 3.54e6 | 4.00e6 |
| CG10486 | DRSC09735 | 3.43e6 | 4.11e6 |
| CG43867 | DRSC17582 | 3.46e6 | 3.96e6 |
| CG43867 | DRSC17836 | 3.63e6 | 4.13e6 |
| CG43867 | DRSC17837 | 3.53e6 | 3.89e6 |
| CG43867 | DRSC17943 | 3.59e6 | 4.20e6 |
| bgm | DRSC03495 | 2.81e6 | 3.13e6 |
| GluRIIE | DRSC13431 | 3.47e6 | 4.04e6 |
| CLS | DRSC15642 | 3.80e6 | 4.23e6 |
| Tnpo-SR | DRSC00546 | 3.27e6 | 3.48e6 |
| CG31819 | DRSC01532 | 3.66e6 | 4.20e6 |
| CG7882 | DRSC04899 | 3.55e6 | 4.08e6 |
| CG9406 | DRSC04552 | 3.36e6 | 3.68e6 |
| Lsd-2 | DRSC20143 | 3.64e6 | 3.99e6 |
| Ir7g | DRSC18008 | 3.53e6 | 3.96e6 |
| CG8517 | DRSC07205 | 3.55e6 | 4.14e6 |
| HIPP1 | DRSC11748 | 3.42e6 | 3.92e6 |
| CG5157 | DRSC10488 | 3.48e6 | 3.98e6 |
| Capa | DRSC15058 | 3.72e6 | 4.26e6 |
| CSN3 | DRSC11859 | 3.32e6 | 3.73e6 |
| RhoU | DRSC17635 | 3.58e6 | 4.08e6 |
| RhoU | DRSC17803 | 3.49e6 | 4.03e6 |
| RhoU | DRSC17804 | 3.62e6 | 4.06e6 |
| RhoU | DRSC22159 | 3.59e6 | 4.02e6 |
| RhoU | DRSC22396 | 3.30e6 | 3.85e6 |
| lobo | DRSC14662 | 3.55e6 | 4.07e6 |
| lobo | DRSC14663 | 3.58e6 | 4.07e6 |
| Sodh2 | DRSC16865 | 3.70e6 | 4.07e6 |
| CG32457 | DRSC11596 | 3.54e6 | 4.02e6 |
| CG32457 | DRSC21722 | 3.26e6 | 3.76e6 |
| Polr2A | DRSC20280 | 2.42e6 | 2.89e6 |
| CG15225 | DRSC04232 | 3.54e6 | 4.01e6 |
| CG15225 | DRSC23269 | 3.67e6 | 4.16e6 |
| mre11 | DRSC03570 | 3.84e6 | 4.31e6 |
| mre11 | DRSC22628 | 3.62e6 | 4.12e6 |
| CG6700 | DRSC02980 | 3.39e6 | 3.80e6 |
| PH4alphaSG2 | DRSC15037 | 3.65e6 | 4.13e6 |
| CG5065 | DRSC06912 | 3.59e6 | 4.13e6 |
